Data: US4748179A, “β-carbolin-3-carboxylic acid derivatives and their use as benzodiazepine antagonists” (Schering Aktiengesellschaft, priority 1983, dated 1988)

System: pentazole-induced seizures in diazepam-treated NMRI mice
Assay: Antagonism of benzodiazepine (diazepam) action on pentazole-induced seizures
Format: in vivo
Conditions: 5 mg/kg i.p. 30 minutes before pentazole 150 mg/kg s.c.

CN1C(=O)CN=C(c2ccccc2)c2cc(Cl)ccc21 [Diazepam, reference compound] was tested, and the “inhibition of pentazole-induced seizures” value was “totally inhibit the seizures”.
